Where “and” joins values, the source holds several entries; their conditions need not be identical. Equal entries are not always repeated. In all, about 310,000 compounds went through this assay and about 17,000 (5.5%) were called active. The shares of active, inactive and inconclusive entries below differ from those in the screen. Calls come from the whole dose curve; as a rule, active = well fitted inhibition curve with a large enough effect; inconclusive = small, poorly fitted or top-dose-only effect, or effect the other way; inactive = no such curve, though single readings can be large or run the other way. A potency beside an inconclusive call is a rough fit, not a confirmed value.
What follows are compounds tested against Nuclear receptor ROR-gamma (Mus musculus) (UniProt P51450) (assay: qHTS for inhibitors of ROR gamma transcriptional activity). Settings: Drosophila S2 Gal4-RORgamma UAS-luciferase reporter, 20 h; series mostly up to 53.6 µM.
Outline: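 ROR gamma transcriptional activity was tracked as Gal4-UAS luciferase output in stably transfected Drosophila Schneider cells, with compound added 1 hr before 700 uM copper sulfate induction and a 20 hr ambient-temperature incubation.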
Note: nearly all actives have a fitted effect of over 60% in size.
Potency is the fitted concentration of half-maximal effect.

The chains behind the UniProt entries cited, without tags or fusion partners. Where a name states a change or a piece, a line headed by the entry shows the natural chain unless it says otherwise.
UniProt P51450: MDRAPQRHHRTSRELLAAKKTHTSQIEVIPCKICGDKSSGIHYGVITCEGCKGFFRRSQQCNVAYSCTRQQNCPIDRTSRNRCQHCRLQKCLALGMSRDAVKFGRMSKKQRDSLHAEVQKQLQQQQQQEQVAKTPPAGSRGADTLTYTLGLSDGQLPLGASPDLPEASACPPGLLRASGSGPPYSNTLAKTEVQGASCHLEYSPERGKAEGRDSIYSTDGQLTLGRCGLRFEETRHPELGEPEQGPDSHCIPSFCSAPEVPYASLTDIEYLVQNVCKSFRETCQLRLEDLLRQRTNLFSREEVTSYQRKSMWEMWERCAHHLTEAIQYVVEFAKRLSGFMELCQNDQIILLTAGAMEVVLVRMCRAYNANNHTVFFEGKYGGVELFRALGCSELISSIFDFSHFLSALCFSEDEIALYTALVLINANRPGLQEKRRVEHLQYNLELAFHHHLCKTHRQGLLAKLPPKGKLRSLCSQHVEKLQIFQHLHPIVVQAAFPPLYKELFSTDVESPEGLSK

Potency, active:
O=C(/C=C\Nc1ccccc1Br)c1ccc2c(c1)OCO2 5.01 µM
CCOC(=O)c1nnsc1Nc1ccc(C)c(C)c1 0.708 µM
S=c1nc(C2CC2)[nH]c2ccccc12 3.55 µM
COc1ccccc1-n1c(CCn2nc(C)c(Br)c2C)n[nH]c1=S 10 µM
O=[N+]([O-])c1cnc(Sc2ccncn2)s1 3.16 µM
COc1ccc(CN(CCC#N)C(=S)NC(=O)c2ccccc2)cc1 0.316 µM
COC(=O)N/N=C/c1cc(N=Nc2ccccc2Cl)ccc1O 3.98 µM
C=CCNC(=S)N/N=C(\C)c1ccc(-n2ccnc2)cc1 3.16 µM
O=C(CCCn1c(=S)[nH]c2cc3c(cc2c1=O)OCO3)N1CCc2ccccc2C1 12.6 µM
O=C(CSc1ccc2ccccc2n1)N/N=C/c1ccccc1O 1.41 µM
CCOC(=O)Cc1csc(NC(=S)NC(=O)c2ccccc2C)n1 11.2 µM
COc1cccc(C2C=C(c3cccs3)Nc3ncnn32)c1OC (configuration not stated) 11.2 µM
COc1ccc(C(=O)CC(=O)C(=O)Nc2ccc([N+](=O)[O-])cc2C)cc1 5.62 µM
C/C(=N\NC(=O)c1cccc(Br)c1)c1ccccn1 0.1 µM
C=CCc1ccccc1OCC(=O)N/N=C/c1ccc(OC(C)=O)cc1OC(C)=O 7.08 µM
C=CCN(CC=C)S(=O)(=O)c1ccc(C(=O)Nc2nnc(CSC)o2)cc1 0.562 µM
CCN1C(=S)N[C@@H](c2ccccc2)C(C(=O)OC)=C1C 12.6 µM and 3.16 µM

Molecules listed so far that have two or more sulfur atoms, in the order listed:
Potency, active:
O=[N+]([O-])c1cnc(Sc2ccncn2)s1 3.16 µM
CCOC(=O)Cc1csc(NC(=S)NC(=O)c2ccccc2C)n1 11.2 µM
C=CCN(CC=C)S(=O)(=O)c1ccc(C(=O)Nc2nnc(CSC)o2)cc1 0.562 µM

Next part:

Potency, inactive:
CC(C)CCOC(=O)/C=C/c1ccccc1
COC(=O)Cc1ccc(NC(=S)NCc2ccc(S(N)(=O)=O)cc2)cc1
COC(=O)c1ccc(/C=N\NC(=O)c2c(C)nc3ccc(Cl)cn23)cc1
CSc1ccc(CCNC(=O)c2nn(C)c3c2CS(=O)(=O)c2ccccc2-3)cc1
O=C(N/C(=C/c1ccccc1F)C(=O)N1CCCCC1)c1ccccc1
COc1ccc(-c2[nH]ncc2/C=C(/C#N)C(=O)NC2CCCCCC2)cc1
COCCNc1nc(-c2cc(C)n(CCc3ccc(OC)cc3)c2C)cs1
CC12CCC(C/C1=N\OC(=O)c1c(F)cccc1F)C2(C)C (configuration not stated)
CCOc1cc(C(=O)Nc2ccc(F)cc2)cc(Br)c1OC
Cc1cccn2c(=O)c3cc(C(=O)NCC4CCCO4)c(=N)n(C4CCCCC4)c3nc12 (configuration not stated)
COc1ccc(S(=O)(=O)N2CCCN(CC(=O)Nc3ccccc3F)CC2)cc1
Cc1ccc(-c2nnc3n2N=C(c2ccccc2)CS3)cc1
Cc1nn(-c2ccccc2)c(Cl)c1/C=N/NS(=O)(=O)c1ccc(Br)cc1
O=C(NCC1CCCCC1)c1ccco1
NCCC[C@@H](CC(=O)N[C@@H]1CCCC[C@H]1C(=O)N[C@H](CC(=O)N[C@@H](CCC(=O)O)CC(=O)O)Cc1c[nH]c2ccccc12)NC(=O)C[C@H](CO)NC(=O)[C@@H]1CCCC[C@H]1N
O=C(Nc1ccc(F)cc1)c1ccc(CN2CCc3ccccc3C2)cc1
COc1ccc(C2=NCCc3cc(OC)c(OC)cc32)cc1
O=C(Nc1cccc(-c2cscn2)c1)C1CCN(Cc2ccsc2)CC1
COc1cccc(/C(O)=C2/C(=O)C(=O)N(c3cc(C)on3)C2c2cccs2)c1 (configuration not stated)

Sorted by number of heavy atoms (rising): 3 of the compounds above
Potency, inactive:
O=C(NCC1CCCCC1)c1ccco1
CC(C)CCOC(=O)/C=C/c1ccccc1
O=C(N/C(=C/c1ccccc1F)C(=O)N1CCCCC1)c1ccccc1

Following part:

Potency, inconclusive:
CC(C)CSc1nc2c(=O)[nH][nH]c(=O)c2n1Cc1ccccc1 6.31 µM [activator, full curve]
Cc1ccc(-c2nnn(CC(=O)N(CC(=O)NC3CCCC3)c3ccc(F)c(Cl)c3)n2)o1 28.2 µM [inhibitor, single point]
COc1ccc(NC(=S)Nc2ccc(S(N)(=O)=O)cc2)c(C)c1 17.8 µM [inhibitor, single point]
Cc1ccc(NC(CNS(=O)(=O)c2ccc(Cl)cc2)c2ccccc2)cc1 (configuration not stated) 10 µM [activator, partial curve]
Cc1cc(Br)cc2c1NC(=O)C2(c1c(C)n(C)n(-c2ccccc2)c1=O)c1c(C)n(C)n(-c2ccccc2)c1=O 20 µM [activator, single point]
CCCn1c(=O)c2[nH]c(-c3ccccc3)nc2n(CCC)c1=O 3.55 µM [activator, full curve, poor fit]
CC(C)C[C@H](NC(=O)c1nc[nH]c1C(=O)N[C@@H](CC(C)C)C(=O)OC(C)(C)C)C(=O)OC(C)(C)C 6.31 µM [inhibitor, full curve, poor fit]
S=C(NCC1CCCO1)Nc1ccc(Nc2ccccc2)cc1 (configuration not stated) 14.1 µM [inhibitor, partial curve, poor fit]
COC(=O)c1c(-c2ccc(C(C)(C)C)cc2)csc1NC(=O)C1C2CCC(O2)C1C(=O)O (configuration not stated) 28.2 µM [activator, single point]
COc1ccc(/C=N/Nc2nnc(C)n2N)cc1OC(C)=O 14.1 µM [inhibitor, single point]
c1cc2c(cc1-c1cnc3n1CCC3)OCCO2 35.5 µM [inhibitor, single point]
CCOc1cc(/C=C2/COc3ccccc3C2=O)ccc1OCC(=O)N(C)C 35.5 µM [inhibitor, single point]
CCOC(=O)Cc1csc(NC(=O)c2ccc(Cl)s2)n1 35.5 µM [inhibitor, single point]
CCCOc1ccc(/C=N/NC(=O)C2CC2)c(OCCC)c1 1.26 µM [inhibitor, partial curve, poor fit]
O=C(CCN1C(=O)c2ccccc2C1=O)N1CCC(c2ccccc2)C1 (configuration not stated) 14.1 µM [activator, partial curve]
COc1cc(C(=O)Nc2nc3ccccc3s2)ccc1OCc1c(C)noc1C 20 µM [inhibitor, single point]
CCOC(=O)N1CCC(NC(=O)c2ccc3c(c2)N(C)C(=O)/C(=C/c2cccc(OC)c2)S3)CC1 11.2 µM [activator, partial curve]
CC(C)c1ccc(C2c3[nH]c4ccccc4c3C[C@H]3C(=O)N(c4ccccc4C(=O)N4CCC[C@H]4C(=O)O)C(=O)N23)cc1 (some centres not stated) 3.98 µM [activator, full curve, poor fit]
COc1ccc(C)cc1NC(=O)c1ccc(S(=O)(=O)N2CCCCC2)cc1 5.62 µM [activator, full curve, poor fit]
Cc1onc(-c2ccccc2)c1CNC(=O)Nc1ccc(C(F)(F)F)cc1 17.8 µM [activator, partial curve]
CN=Cc1cc(-c2ccccc2)sc1O 25.1 µM [activator, single point]
Cc1cccc(NC(=O)C2CC2c2ccccc2)c1C (configuration not stated) 0.0032 µM [activator, full curve, poor fit]
O=c1cc(-c2ccccc2)[nH]c2ccccc12 35.5 µM [activator, single point] and 7.94 µM [activator, partial curve]
COc1ccccc1NS(=O)(=O)c1ccc2ccccc2c1 15.8 µM [activator, partial curve, poor fit]
COc1ccc(CSc2nnnn2-c2ccccc2)cc1 10 µM [activator, partial curve]
CCN1CCCC(OC(=O)Nc2ccccc2)C1 (configuration not stated) 10 µM [activator, partial curve, poor fit]
CCN(CC)CCn1c(NCc2cc(OC)ccc2OC)nc2ccccc21 11.2 µM [inhibitor, single point]
CCOC(=O)C(C)/C(C)=N\Nc1ccc([N+](=O)[O-])cc1[N+](=O)[O-] (configuration not stated) 11.2 µM [activator, single point]
Cc1ccccc1CN(c1ccc(C(=O)N2CCc3ccccc3C2)cc1)S(C)(=O)=O 22.4 µM [activator, single point]
O=C(Nc1cc(Cl)cc(Cl)c1)C1CCCC1 15.8 µM [activator, partial curve]
Nc1nonc1-n1nnc(C(=O)N/N=C/C2CC=CCC2)c1CSc1ccccc1 (configuration not stated) 35.5 µM [inhibitor, single point]
CCOC(=O)CSc1nc2ccc(N3CCOCC3)cc2c(=O)n1Cc1ccc2c(c1)OCO2 35.5 µM [inhibitor, single point]
CCN(CC)S(=O)(=O)c1cccc(-c2nnc(SCc3nnc(-c4cccs4)o3)n2N)c1 22.4 µM [activator, partial curve, poor fit]
O=C(NC1CCCC1)C(c1ccccn1)N(C(=O)c1csnn1)c1ccccc1 (configuration not stated) 31.6 µM [inhibitor, single point]
CSc1nc(=S)n(-c2cc(C)ccc2C)c(C)c1C(C)=O 6.31 µM [inhibitor, partial curve, poor fit]
Cc1cccc(NC(=O)CN2NS(=O)(=O)c3ccccc3C2=O)c1 15.8 µM [activator, single point]

— PubChem BioAssay AID2551 (National Center for Advancing Translational Sciences (NCATS), 2010)
